No constants are given. Whether binding was seen depends on the method and setting. Binding calls can cover weak binding; strength is not graded here.
How the values were obtained:
[1] = biological target: PavD8-His (sweet cherry (Prunus avium)); assay: pull-down; His pull-down: His-tagged protein incubated with GST-tagged protein, pulled down with His agarose beads, immunoblot with anti-GST and anti-His; both purified
[2] = biological target: PavDREB1E-GST (sweet cherry (Prunus avium)); assay: pull-down; GST pull-down: GST-tagged protein immobilised on glutathione agarose, incubated with His-tagged protein; in Fig. 5I a mixture of PavHY5-MBP (increasing amounts) and PavD8-His was added to PavDREB1E-GST on glutathione beads; both purified

Amino acid sequences for entries named in this document (tags omitted). A change or cut given only in a name is not applied to a line headed by its entry.
UniProt A0A6P5RSY3: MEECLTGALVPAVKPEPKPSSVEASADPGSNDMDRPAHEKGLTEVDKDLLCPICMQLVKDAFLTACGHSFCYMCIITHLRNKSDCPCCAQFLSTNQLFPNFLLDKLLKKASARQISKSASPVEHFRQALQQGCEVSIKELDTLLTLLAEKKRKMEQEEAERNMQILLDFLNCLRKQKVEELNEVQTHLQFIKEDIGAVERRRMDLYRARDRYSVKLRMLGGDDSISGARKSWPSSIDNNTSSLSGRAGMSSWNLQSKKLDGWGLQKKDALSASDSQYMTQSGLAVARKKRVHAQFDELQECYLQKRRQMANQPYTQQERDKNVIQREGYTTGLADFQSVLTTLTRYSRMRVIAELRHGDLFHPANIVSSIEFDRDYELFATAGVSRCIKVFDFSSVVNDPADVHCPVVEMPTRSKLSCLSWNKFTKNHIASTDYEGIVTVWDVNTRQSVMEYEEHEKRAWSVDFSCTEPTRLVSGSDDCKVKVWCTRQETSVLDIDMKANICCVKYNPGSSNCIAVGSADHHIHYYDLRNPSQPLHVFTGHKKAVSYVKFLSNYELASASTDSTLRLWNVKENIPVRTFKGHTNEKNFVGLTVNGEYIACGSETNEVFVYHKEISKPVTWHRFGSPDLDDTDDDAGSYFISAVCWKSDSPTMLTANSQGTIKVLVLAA
UniProt A0A6P5SVV0: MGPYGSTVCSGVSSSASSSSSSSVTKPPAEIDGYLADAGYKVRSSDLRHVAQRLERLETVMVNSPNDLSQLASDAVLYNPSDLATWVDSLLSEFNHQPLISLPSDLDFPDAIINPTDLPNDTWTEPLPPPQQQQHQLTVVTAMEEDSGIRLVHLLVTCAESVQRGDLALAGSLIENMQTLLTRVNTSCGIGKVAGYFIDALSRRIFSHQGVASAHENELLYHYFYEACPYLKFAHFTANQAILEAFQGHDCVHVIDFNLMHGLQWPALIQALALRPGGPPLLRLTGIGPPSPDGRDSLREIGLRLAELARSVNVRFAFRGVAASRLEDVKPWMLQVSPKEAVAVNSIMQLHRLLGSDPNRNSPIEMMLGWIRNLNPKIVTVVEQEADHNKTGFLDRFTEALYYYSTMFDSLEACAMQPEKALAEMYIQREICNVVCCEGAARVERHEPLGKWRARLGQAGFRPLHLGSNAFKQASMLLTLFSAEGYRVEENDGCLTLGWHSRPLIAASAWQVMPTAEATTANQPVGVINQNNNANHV
UniProt A0A6P5RM44: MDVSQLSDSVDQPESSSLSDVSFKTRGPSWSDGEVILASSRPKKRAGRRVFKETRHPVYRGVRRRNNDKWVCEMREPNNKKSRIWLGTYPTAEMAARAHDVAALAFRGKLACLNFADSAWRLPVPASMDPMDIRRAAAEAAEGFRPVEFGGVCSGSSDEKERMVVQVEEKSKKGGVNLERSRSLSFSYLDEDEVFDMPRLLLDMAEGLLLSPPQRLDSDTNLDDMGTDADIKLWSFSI

Substance | binding [1] | binding [2]
PavCOP1-2-GST (from UniProt A0A6P5RSY3) | binds | 
PavD8-His (from UniProt A0A6P5SVV0) |  | binds
PavDREB1E-GST (from UniProt A0A6P5RM44) | binds | 
